# Counter-ions that a name gives are not always drawn. This is one part of the list. Many values rest on one well or one pass, so single values are uncertain.
# Test system: Drosophila melanogaster DPAGT1 (Alg7) RNAi eye model
# Assay: eye size Z-score vs DMSO-treated DPAGT1 model flies; higher = larger eye (suppression of DPAGT1 phenotype)
# Conditions: 5 uM
Structure (SMILES),eye size Z-score,eye size Z-score (female)
N=C(N=C(N)N)N1CCOCC1 [Moroxidine hydrochloride],0.25,
CC(=O)OCC(=O)[C@@]12OC3(CCCC3)O[C@@H]1C[C@H]1[C@@H]3CCC4=CC(=O)C=C[C@]4(C)[C@@]3(F)[C@@H](O)C[C@@]12C [Amcinonide],0.23,
CCCC(=O)Nc1ccc(OCC(O)CNC(C)C)c(C(C)=O)c1 (stereo not given) [Acebutolol hydrochloride],0.92,
CC(=O)Nc1ccc(OCC(O)CNC(C)C)cc1 (stereo not given) [Practolol],0.31,
CN1[C@@H]2CC[C@H]1C[C@@H](OC(c1ccccc1)c1ccccc1)C2 [Benztropine mesylate],1.02,
O=C(Nc1ccccc1)OCC(CN1CCCCC1)OC(=O)Nc1ccccc1 (stereo not given) [Diperodon hydrochloride],-0.76,
CCCCC1C(=O)N(c2ccccc2)N(c2ccccc2)C1=O [Phenylbutazone],0.33,
CCCc1nc2c(C)cc(-c3nc4ccccc4n3C)cc2n1Cc1ccc(-c2ccccc2C(=O)O)cc1 [Telmisartan],0.42,
COCCCOc1cc(C[C@@H](C[C@H](N)[C@@H](O)C[C@H](C(=O)NCC(C)(C)C(N)=O)C(C)C)C(C)C)ccc1OC [Aliskiren hemifumarate],0.25,
CCCCOC(=O)c1ccc(O)cc1 [Butylparaben],-1.54,
CC(=O)/N=c1/sc(S(N)(=O)=O)nn1C [Methazolamide],0.15,
N=C(N)N1CCc2ccccc2C1 [Debrisoquin sulfate],-0.56,
C[C@H](O)[C@H](O)[C@H]1CNc2[nH]c(N)nc(=O)c2N1 [Sapropterin dihydrochloride],-0.05,
O=C(O)Cc1cc(I)c(Oc2ccc(O)c(I)c2)c(I)c1 [Tiratricol],-0.72,
COCCCOc1ccnc(C[S+]([O-])c2nc3ccccc3[nH]2)c1C (stereo not given) [Rabeprazole sodium salt],-0.25,
CNCC[C@@H](Oc1ccccc1C)c1ccccc1 [Tomoxetine hydrochloride],1.63,
Cc1ccc(C(=O)C(C)CN2CCCCC2)cc1 (stereo not given) [Tolperisone hydrochloride],0.73,
O=C(CCCCC(=O)Nc1c(I)cc(I)c(C(=O)O)c1I)Nc1c(I)cc(I)c(C(=O)O)c1I [Iodipamide],0.65,
CCCNC(C)C(=O)Nc1c(C)csc1C(=O)OC (stereo not given) [Articaine hydrochloride],-0.33,
NCCc1cc[nH]n1 [Betazole hydrochloride],0,
COc1cccc(N(C)C(=S)Oc2ccc3c(c2)CCCC3)n1 [Liranaftate],0.84,
Cc1c(NC(C)C)c(=O)n(-c2ccccc2)n1C [Isopyrin hydrochloride],-0.27,
CC(C[N+](C)(C)C)OC(N)=O (stereo not given) [Bethanechol chloride],-1.17,
COc1ccc2c(c1)C(=O)N(CCc1ccc(S(=O)(=O)NC(=O)NC3CCCCC3)cc1)C(=O)C2(C)C [Gliquidone],1.43,
CN(C)CCN(Cc1ccc(Cl)cc1)c1ccccn1 [Chloropyramine hydrochloride],-0.48,
NS(=O)(=O)Cc1noc2ccccc12 [Zonisamide],1.22,
COc1ccc([C@@H]2Sc3ccccc3N(CCN(C)C)C(=O)[C@@H]2OC(C)=O)cc1 [Diltiazem hydrochloride],0.06,

# One compound at a time, as listed above:
# CC(=O)OCC(=O)[C@@]12OC3(CCCC3)O[C@@H]1C[C@H]1[C@@H]3CCC4=CC(=O)C=C[C@]4(C)[C@@]3(F)[C@@H](O)C[C@@]12C [Amcinonide] as listed: eye size Z-score: 0.23
# CC(=O)/N=c1/sc(S(N)(=O)=O)nn1C [Methazolamide] as listed: eye size Z-score: 0.15
# CNCC[C@@H](Oc1ccccc1C)c1ccccc1 [Tomoxetine hydrochloride] as listed: eye size Z-score: 1.63
# CN1[C@@H]2CC[C@H]1C[C@@H](OC(c1ccccc1)c1ccccc1)C2 [Benztropine mesylate] as listed: eye size Z-score: 1.02

# The listing continues:

Structure (SMILES),eye size Z-score,eye size Z-score (female)
Cc1cn([C@H]2C[C@H](N=[N+]=[N-])[C@@H](CO)O2)c(=O)[nH]c1=O [Zidovudine],0.03,
Cc1ccc(C)c(OCCCC(C)(C)C(=O)O)c1 [Gemfibrozil],0.18,
O=C(O)C[C@H](O)C[C@H](O)/C=C/c1c(C2CC2)nc2ccccc2c1-c1ccc(F)cc1 [Pitavastatin calcium],-0.05,
O=C(CCCN1CCC(O)(c2ccc(Cl)cc2)CC1)c1ccc(F)cc1 [Haloperidol],0.09,
CNCCC=C1c2ccccc2C=Cc2ccccc21 [Norcyclobenzaprine],0.64,
CC1(C)S[C@@H]2[C@H](NC(=O)[C@H](N)c3ccccc3)C(=O)N2[C@H]1C(=O)OC1OC(=O)c2ccccc21 (stereo not given in full) [Talampicillin hydrochloride],0.55,
NC(=O)OCC(O)COc1ccc(Cl)cc1 (stereo not given) [Chlorphensin carbamate],-0.33,
COC(=O)CCc1ccc(OCC(O)CNC(C)C)cc1 (stereo not given) [Esmolol hydrochloride],-0.62,
CN1C(C(=O)Nc2ccccn2)=C(O)c2ccccc2S1(=O)=O [Piroxicam],-1.2,
COCCOC(=O)C1=C(C)NC(C)=C(C(=O)OC(C)C)C1c1cccc([N+](=O)[O-])c1 (stereo not given) [Nimodipine],0.17,
C[C@]12CCC(=O)C=C1C=C[C@@H]1[C@@H]2CC[C@@]2(C)[C@H]1CC[C@@]21CCC(=O)O1 [Canrenone],0.41,
CC(C)NC(=N)NC(=N)Nc1ccc(Cl)cc1 [Proguanil hydrochloride],1.08,
COc1ccc2c3c1O[C@H]1C[C@@H](O)C=C[C@@]31CCN(C)C2 [Galanthamine hydrobromide],-0.12,
Cc1nnc(SCC2=C(C(=O)O)N3C(=O)[C@@H](NC(=O)Cn4cnnn4)[C@H]3SC2)s1 [Cefazolin sodium salt],1.28,
Cc1cc(C#N)cc(C)c1Oc1nc(Nc2ccc(C#N)cc2)nc(N)c1Br [Etravirine],0.32,
O=c1[nH]c(=O)n([C@H]2C[C@H](O)[C@@H](CO)O2)cc1C(F)(F)F [Trifluridine],-0.03,
CCCCCCCCNC(C)C(O)c1ccc(SC(C)C)cc1 (stereo not given) [Suloctidil],0.46,
CC(=O)CC(c1ccc([N+](=O)[O-])cc1)c1c(O)c2ccccc2oc1=O (stereo not given) [Acenocoumarol],0.41,
S=c1[nH]cnc2nc[nH]c12 [Mercaptopurine],0.25,
CN(Cc1ccc(C(C)(C)C)cc1)Cc1cccc2ccccc12 [Butenafine hydrochloride],,0.64
COc1cc(NS(=O)(=O)c2ccc(N)cc2)nc(OC)n1 [Sulfadimethoxine],-0.87,
CC[N+](CC)(CC(=O)Nc1c(C)cccc1C)Cc1ccccc1 [Denatonium benzoate],0.88,
CC1(C)O[C@@H]2[C@@H](CO[C@@]3(COS(N)(=O)=O)OC(C)(C)O[C@@H]23)O1 [Topiramate],-0.16,
CN(C)c1cc(NC(=O)CNC(C)(C)C)c(O)c2c1C[C@H]1C[C@H]3[C@H](N(C)C)C(O)=C(C(N)=O)C(=O)[C@@]3(O)C(O)=C1C2=O [Tigecycline],0.43,
Cc1cccc(Nc2ccncc2S(=O)(=O)NC(=O)NC(C)C)c1 [Torsemide],0.82,
NC(=O)N1c2ccccc2CC(=O)c2ccccc21 [Oxcarbazepine],-0.7,
CC(C)Cn1cnc2c(N)nc3ccccc3c21 [Imiquimod],-0.69,

Structure (SMILES),eye size Z-score,eye size Z-score (female)
CC(=O)N[C@@H](CCC(N)=O)C(=O)O [Acetyl-L-glutamine],-0.87,
CN(C)CC/C=C1\c2ccccc2CSc2ccccc21 [Dosulepin hydrochloride],1.23,
CC(N)(Cc1ccc(O)c(O)c1)C(=O)O (stereo not given) [(L) Methyldopa],0.02,
CC(C)(Oc1ccc(Cl)cc1)C(=O)O [Clofibric acid],0.48,
Cn1c(=O)c2c(ncn2CC(=O)O)n(C)c1=O [Acefylline],0.44,
O=C(O)C1CSCN1 (stereo not given) [Timonacic],0.33,
CO[C@H]1C[C@H](O[C@H]2[C@H](C)[C@@H](O[C@@H]3O[C@H](C)C[C@H](N(C)C)[C@H]3OC(C)=O)[C@@H](C)C[C@@]3(CO3)C(=O)[C@H](C)[C@@H](OC(C)=O)[C@@H](C)[C@@H](C)OC(=O)[C@@H]2C)O[C@@H](C)[C@@H]1OC(C)=O [Troleandomycin],0.69,
Cc1cc(C(=O)NNCc2ccccc2)no1 [Isocarboxazid],1.11,
COc1cc(OC)c(C(=O)CCCN2CCCC2)c(OC)c1 [Buflomedil hydrochloride],,-0.47
N#CC(c1ccc(Cl)cc1)c1c(Cl)cc(-n2ncc(=O)[nH]c2=O)cc1Cl (stereo not given) [Diclazuril],0.05,
CNC(=O)OCc1cccc(COC(=O)NC)n1 [Pyricarbate],0.24,
CCN1C(=O)NC(c2ccccc2)C1=O (stereo not given) [Ethotoin],0.14,
CN1CCC(=C2c3ccccc3CC(=O)c3sccc32)CC1 [Ketotifen fumarate],-0.69,
COc1ccccc1N1CCN(CC(O)COc2cccc3ccccc23)CC1 (stereo not given) [Naftopidil dihydrochloride],1.61,
CN1CCCC(CC2c3ccccc3Sc3ccccc32)C1 (stereo not given) [Metixene hydrochloride],-0.06,
COc1ccc2c(c1)N(C[C@H](C)CN(C)C)c1ccccc1S2 [Methotrimeprazine maleate salt],0.28,
CC(COc1ccccc1)NN (stereo not given) [Phenoxypropazine dihydrochloride],0.25,
CCCN(CCC)C(=O)C(CCC(=O)O)NC(=O)c1ccccc1 (stereo not given) [Proglumide],1.1,
CC(C)(Sc1cc(C(C)(C)C)c(O)c(C(C)(C)C)c1)Sc1cc(C(C)(C)C)c(O)c(C(C)(C)C)c1 [Probucol],,0.56
CS(=O)(=O)CCNCc1ccc(-c2ccc3ncnc(Nc4ccc(OCc5cccc(F)c5)c(Cl)c4)c3c2)o1 [Lapatinib],-0.98,
Cn1ccnc1S [Methimazole],,0
Nc1c(Br)cc(Br)cc1CN[C@H]1CC[C@H](O)CC1 [Ambroxol hydrochloride],-0.61,
CCC(=O)c1ccc(O)cc1 [Paroxypropione],0.76,
O=c1cc(-c2ccc(O)c(O)c2)oc2cc(O)cc(O)c12 [Luteolin],0.27,
CC(C)(C(=O)c1cccnc1)c1cccnc1 [Metyrapone],-1.13,
"CC(C)(S)C(N)C(=O)O (racemic) [D,L-Penicillamine]",0.22,
